## Library screening results

Chains of the proteins cited; added tags and fusions are not shown.
UniProt E9BF75, entry or part of it: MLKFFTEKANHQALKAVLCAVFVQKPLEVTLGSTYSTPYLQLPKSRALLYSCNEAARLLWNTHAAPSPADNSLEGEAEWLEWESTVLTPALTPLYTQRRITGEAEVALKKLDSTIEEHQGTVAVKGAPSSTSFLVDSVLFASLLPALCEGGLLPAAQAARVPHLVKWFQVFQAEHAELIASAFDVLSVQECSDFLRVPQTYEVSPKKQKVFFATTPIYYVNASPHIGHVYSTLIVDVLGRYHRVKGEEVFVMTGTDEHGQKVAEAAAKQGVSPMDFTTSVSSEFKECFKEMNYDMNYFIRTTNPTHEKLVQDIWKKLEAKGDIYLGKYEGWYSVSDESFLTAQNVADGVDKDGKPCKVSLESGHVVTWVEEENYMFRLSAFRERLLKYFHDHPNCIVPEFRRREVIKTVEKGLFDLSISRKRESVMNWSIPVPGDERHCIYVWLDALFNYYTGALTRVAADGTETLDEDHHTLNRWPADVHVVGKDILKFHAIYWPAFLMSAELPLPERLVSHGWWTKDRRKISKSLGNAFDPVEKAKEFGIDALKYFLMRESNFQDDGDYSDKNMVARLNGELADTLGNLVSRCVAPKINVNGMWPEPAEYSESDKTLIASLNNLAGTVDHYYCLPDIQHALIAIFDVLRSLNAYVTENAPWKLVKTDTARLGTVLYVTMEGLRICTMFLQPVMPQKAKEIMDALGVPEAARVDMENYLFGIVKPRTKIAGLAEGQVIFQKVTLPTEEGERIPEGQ

All values are in %. The controls that fix the scale are not given in the record; negative values are as filed. This is an unselected part of the compounds tested. A dash means the value is not listed here; it may have been measured.

Mtb heat-shock: 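Assay on Mycobacterium tuberculosis, filed only as a heat shock assay from Cornell; the read-out is not stated. The concentration is filed as 10 mM, unlikely as a test dose, so the dose is not known. The record gives no direction; compounds that gave an IC50 in retests scored well above the rest, so higher reads as stronger inhibition. About 69,000 compounds were tested under these conditions; 1.4% (about 930) showed 50% or more at least once.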
LdMetRS: 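Primary screen of methionyl-tRNA synthetase; the read-out is not stated. Target: Methionyl-tRNA synthetase (putative), Leishmania donovani (UniProt E9BF75). The test concentration is not given. The values are filed as inhibition. About 68,000 compounds were tested under these conditions; 0.035% (about 24) showed 50% or more at least once.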
Mtb growth Cornell: 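Whole-cell assay for inhibitors of Mycobacterium tuberculosis growth, labelled Cornell in the record; the read-out is not stated. The concentration is filed as 10 mM, unlikely as a test dose, so the dose is not known. Higher means stronger inhibition (inferred from two other growth screens of the library). Size under these conditions: about 53,000 compounds, about 900 of them at 50% or above in at least one test.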

| SMILES | Mtb heat-shock | LdMetRS | Mtb growth Cornell |
|---|---|---|---|
| `Cc1ccn(CC(=O)Nc2cc(-c3ccncc3)[nH]n2)n1` | -4.445 | 18.8 | - |
| `Cc1nc(N2CCCC2)ncc1-c1cc(O)nc(N2CCOCC2)n1` | 6.994 | -1.256 | - |
| `CN(C)c1ncc(-c2cncn2CCc2ccc3c(c2)OCCO3)cn1` | - | 17.46 | - |
| `O=C1NCCCCC1NC(=O)C1(Oc2ccc(Cl)cc2)CCNCC1` (stereo not drawn) | -21.89 | 4.032 | -11.86 |
| `CCC(CO)NC(=O)Nc1cc(F)ccc1SCC(F)F` (stereo not drawn) | 10.02 | 13.92 | - |
| `Nc1cc2c(nn1)CCN(C(=O)c1cccnc1Oc1ccccc1)C2` | -1.888 | 14.8 | -22.36 |
| `C[C@H]1C[C@@H]2CCN(Cc3nccs3)C[C@H]2O1` | - | 15.22 | - |
| `Cc1nc(O)cc(C2(C)CCCNC2)n1` (stereo not drawn) | - | 13.37 | - |
| `COc1cccc(N2CCN(C(=O)COc3c(C)occc3=O)CC2)c1` | -20.96 | 13.41 | 16.48 |
| `COCC(=O)N1CCC(c2cc(C(F)(F)F)n3ccnc3n2)CC1` | -6.649 | 19.93 | - |
| `CCC(=O)N1CCCC(C(=O)NCc2noc(Cc3ccccc3)n2)C1` (stereo not drawn) | 7.795 | 12.03 | - |
| `COCC(=O)NCc1cc(=O)n2c(n1)CN(Cc1cccs1)CCC2` | -0.3632 | 9.819 | -17.22 |
| `CN(C)S(=O)(=O)c1ccc(CNC(=O)c2cn3c(n2)CNCC3)cc1` | 10.59 | 5.59 | - |
| `O=C(O)CC1COCCN1C(=O)C1(c2ccc(Cl)cc2)CCC1` (stereo not drawn) | -3.439 | 52.17 | 2.102 |
| `O=C(CCNS(=O)(=O)c1cccnc1)N1CCOC(c2ccccc2)C1` (stereo not drawn) | -14.02 | 9.235 | 14.17 |
| `Cc1nc(CN2CCN(CC(O)CN3CCOCC3)CC2)oc1C` (stereo not drawn) | -20.77 | 6.983 | -20.93 |
| `CC(=O)N1CCn2c(-c3cccc(F)c3)cnc2C12CCNCC2.O=C(O)C(F)(F)F` | -17.59 | - | -16.24 |
| `[H][C@@]12CN(C(=O)[C@H]3CCCO3)C[C@]1([H])C(=O)N(Cc1ccc(OC)cc1)C2` | -0.3316 | - | 23.6 |
| `Cc1cc(CN(CCCO)c2ccccc2)on1` | -20.95 | 4.348 | 7.326 |
| `O=C(c1cccc(Cl)c1)N1CC[C@@H](N2CCC(O)CC2)[C@H](O)C1` | -10.57 | 6.62 | -24.05 |
| `[H][C@@]12CCN(Cc3cccs3)C[C@@]1([H])O[C@H](c1ccnc(C)n1)C2` | 8.488 | - | 14.26 |
| `COCCc1noc(CN2CCCC(Cn3nc(C)nc3C)C2)n1` (stereo not drawn) | 2.758 | 15.69 | 6.137 |
| `CCn1nc2c(cc1=O)CN(CCOc1cccc(C#N)c1)CC2` | 0.946 | 16.09 | 26.31 |
| `CCOc1ccccc1CN(C)C(=O)CN1C(=O)OC[C@@H]1C(C)C` | -21.41 | 10.3 | -25.38 |
| `O=C(c1cccc(F)c1)N1CCC2(CC1)CC(N1CCOCC1)C2` | - | 13.14 | - |
| `CC(C)[C@H]1CN(c2cnccn2)C[C@@H]1NC(=O)C1(C#N)CCOCC1` | 2.451 | 12.91 | 10.9 |
| `COc1ccc(C(=O)N2CCC(Nc3ccc(C)nn3)CC2)cc1` | -3.341 | 22.06 | -8.761 |
| `CN(CCC#N)C(=O)CSc1cc(F)ccc1F` | 4.975 | -1.648 | - |
| `c1cnn(Cc2nnc3n2CCCN(Cc2ccsc2)C3)c1` | - | 4.375 | - |
| `CCC(CC)CN1CCN(CC(=O)Nc2ccc3nsnc3c2)CC1` | 10.46 | 11.67 | 23.66 |
| `O=C(O)C(F)(F)F.[H][C@@]12CCN(Cc3cccs3)C[C@]1([H])O[C@H](C(=O)NC1CCC1)C2` | 3.012 | - | - |
| `CSC(C)(C)CNC(=O)NC(c1nnc2n1CCC2)C(C)C` (stereo not drawn) | 0.4607 | 14.44 | 12 |
| `O=C(c1cc[nH]n1)N1CC[C@@H]2CN(Cc3cccnc3)S(=O)(=O)[C@@H]2CC1` | - | 5.882 | - |
| `Cc1ccc(NC2CCN(C(=O)c3ccc(C(N)=O)s3)CC2)nn1` | -9.148 | 11.27 | 8.666 |
| `COc1ccc(F)cc1C(C)NC(=O)c1nnc(C)s1` (stereo not drawn) | 5.515 | 5.576 | -14.86 |
| `CN(Cc1ccccn1)C(=O)c1cc(CN2CCC(O)CC2)on1` | 6.276 | 10.67 | - |
| `O=S(=O)(NC[C@H]1OC[C@@H](NCc2cccs2)[C@@H]1O)c1ccccc1` | -19.4 | 3.729 | 4.03 |
| `O=C(CSCC1CC1)N1CCC2(CCCN(C3CCOCC3)C2=O)C1` (stereo not drawn) | -2.169 | -6.748 | 23.05 |
| `Cc1ncsc1C(=O)NCCOc1ncc(Cl)cc1Cl` | 8.912 | 19.05 | 24.69 |
| `CN(C)C[C@H]1OC[C@@H]2CCN(C(=O)c3ccco3)C[C@@H]21` | - | 13.75 | - |
| `CN(C)CCNC(=O)Nc1cccc(C[S+]([O-])Cc2ccccc2)c1` (stereo not drawn) | -27.24 | 21.31 | -10.44 |
| `CC(C)c1nnc(NC(=O)Cc2ccc(F)cc2)[nH]1` | -14.34 | 11.82 | 12.41 |
| `Cc1ccc(NC2CCN(C(=O)c3ccc(F)cc3Cl)CC2)nn1` | -10.02 | 19.2 | -1.902 |
| `O=C(O)C(F)(F)F.O=c1ccc2c([nH]1)CCC(NCc1ccc(F)cc1)C2` (stereo not drawn) | -5.527 | - | - |
| `CC(C)CCN1CCN(CC(=O)Nc2ccc3nsnc3c2)CC1` | 6.099 | 8.009 | -1.569 |
| `COC(=O)c1ccc(N2CCN(C(=O)CC(F)(F)F)C(C)C2)cc1` (stereo not drawn) | -8.234 | 13.61 | 23.89 |
| `O=C(NCC1CCOC1)Nc1ccc(Oc2ccc(F)cc2)nc1` (stereo not drawn) | -1.608 | 11.22 | - |
| `CN1CCC(c2cnc(NCc3nccn3C)cn2)CC1` | -19.55 | 13.02 | -34.72 |
| `CNc1ncccc1CN1CCC1c1cc(N)nc(C)n1` (stereo not drawn) | -9.76 | 4.127 | -16.89 |
| `CCn1cnnc1CNC(=O)c1cc(Cl)ccc1I` | 8.899 | 20.34 | 10.82 |
| `O=C(NCC(F)(F)F)C1CN(C(=O)c2cnccn2)C1` | 10.78 | 13.67 | -3.827 |
| `O=c1c2ccccc2nc2n1C(CSc1ccc(F)cc1)CN2` (stereo not drawn) | -2.008 | 5.93 | -26.15 |
| `Cn1cc(C2CCCN2C(=O)Cn2c(=O)oc3ccccc32)cn1` (stereo not drawn) | -9.682 | 5.426 | -22.72 |
| `COc1ccc(-c2nnc([C@H]3CCN(CC(C)(C)C)C3)o2)cc1` | 17.7 | 8.475 | 18.51 |
| `N#Cc1ccc(Cl)cc1NCC1CCOC1` (stereo not drawn) | 5.081 | 16.51 | 10.16 |
| `c1ccc(Cn2cc(CNCC3CCCN3c3cccnn3)cn2)cc1` (stereo not drawn) | 2.741 | 23.62 | 24.08 |
| `COCCC(=O)N1C[C@H]2CN(Cc3cccc(C)c3)C(=O)[C@H]2C1` | - | 3.361 | - |
| `CC(C)(C)c1ccn(C2(C(=O)O)CCN(c3ccncc3F)CC2)n1` | 8.056 | 5.205 | - |
| `CC(=O)NCC(=O)N1CCn2cc(CN3CCCCC3)nc2C1.O=C(O)C(F)(F)F` | -35.42 | - | 16.25 |
| `CN(CC(=O)Nc1ccccc1C(=O)NC1CC1)Cc1ccccc1Cl` | 28.78 | 5.797 | 8.392 |
| `CCn1ccnc1CN1CCN(Cc2cccnc2)CC1C` (stereo not drawn) | -38.6 | 7.357 | -7.137 |
| `Cc1nc(CN2CCCC(Cn3cncn3)C2)no1` (stereo not drawn) | -12.63 | 0.5698 | -31.98 |
| `CCN(CC)C(CNC(=O)CCc1nc(C(C)C)no1)c1ccco1` (stereo not drawn) | 15.2 | 5.842 | - |
| `CN(CCOc1ccc(C#N)cc1)CC1CCS(=O)(=O)C1` (stereo not drawn) | -8.651 | 7.588 | 7.467 |
| `CC(C)c1cc(CN2CCC(CC(=O)O)CC2)no1` | 6.455 | 11.62 | -2.549 |
| `Cc1cc(NC(=O)CN2CCCC2c2noc(C(C)C)n2)on1` (stereo not drawn) | -18.35 | 7.803 | 8.556 |
| `CCCc1nc(CN(CC)C(=O)c2onc3ccccc23)no1` | -18.13 | 7.788 | 0.1171 |
| `CC(=O)NC[C@H]1COCc2nc3c(C)cccc3n21` | -17.82 | 8.475 | -30.37 |

Some entries from above, unchanged:

{"smiles": "O=C(NCC(F)(F)F)C1CN(C(=O)c2cnccn2)C1", "Mtb heat-shock": 10.78, "LdMetRS": 13.67, "Mtb growth Cornell": -3.827}
{"smiles": "CC(C)c1cc(CN2CCC(CC(=O)O)CC2)no1", "Mtb heat-shock": 6.455, "LdMetRS": 11.62, "Mtb growth Cornell": -2.549}
{"smiles": "Cc1nc(O)cc(C2(C)CCCNC2)n1", "stereo": "stereo not drawn", "LdMetRS": 13.37}
{"smiles": "Cc1ncsc1C(=O)NCCOc1ncc(Cl)cc1Cl", "Mtb heat-shock": 8.912, "LdMetRS": 19.05, "Mtb growth Cornell": 24.69}
{"smiles": "CC(=O)NCC(=O)N1CCn2cc(CN3CCCCC3)nc2C1.O=C(O)C(F)(F)F", "Mtb heat-shock": -35.42, "Mtb growth Cornell": 16.25}

Measurements from “University of Dundee, Small-Polar-MMV Screening Library” (2021), ChEMBL document CHEMBL3988442.